Measured data: PubChem BioAssay AID1259424 (University of Nebraska Medical Center, 2018)
Test: 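Find knockdowns that reproduce the expression shifts seen after KSR1 loss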 (primary screen). System: human HCT116 colon cancer cells. Reagents: siRNA pool against human genes, 50 nM. Read-out: 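Six signature mRNAs by branched-DNA multiplex assay, scaled to two housekeeping genes and non-targeting median, log2; matched to mean KSR1 knockdown profile by Pearson correlation and euclidean distance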. Scale: mean correlation with KSR1 profile: higher = expression change more like KSR1 knockdown.
In all, the deposit lists about 14,000 reagents; this is a random part of them. 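Higher correlation or smaller distance means closer resemblance to KSR1 loss; control wells, including KSR1 knockdowns, recur on many plates.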 Further read-outs or replicates are left out here. Not given: the time to read-out.

mean correlation with KSR1 profile, by gene knocked down and reagent
ATPAF1 (GeneID 64756): SID364002520 -0.526
CBY1 (GeneID 25776): SID363999450 0.101
ZNF79 (GeneID 7633): SID363997846 -0.422
ESRP1 (GeneID 54845): SID364000452 0.136
STEAP4 (GeneID 79689): SID364002934 -0.0472
CCKAR (GeneID 886): SID363992027 0.276
MRPS24 (GeneID 64951): SID364003735 0.203
CYP11A1 (GeneID 1583): SID363992071 -0.0016
SPAM1 (GeneID 6677): SID363994258 0.407
AREG (GeneID 374): SID363992881 -0.322
OCLN (GeneID 100506658): SID363993709 -0.317
NRG2 (GeneID 9542): SID363995833 -0.441
ZDHHC7 (GeneID 55625): SID364000487 -0.229
CAST (GeneID 831): SID364004820 -0.377
MX2 (GeneID 4600): SID363993638 0.283
MYO9B (GeneID 4650): SID363995152 -0.195
CCNE1 (GeneID 898): SID363992523 0.445
TXN (GeneID 7295): SID363994445 -0.768
MNT (GeneID 4335): SID364001599 0.128
DIDO1 (GeneID 11083): SID364002333 0.459; SID364004707 0.00421

Already shown: 3 of the entries above.
mean correlation with KSR1 profile, by gene knocked down and reagent
OCLN (GeneID 100506658): SID363993709 -0.317
NRG2 (GeneID 9542): SID363995833 -0.441
ZDHHC7 (GeneID 55625): SID364000487 -0.229
